Data as given in PubChem BioAssay AID720505 (Drosophila RNAi Screening Center, 2013)

Purpose: 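Knock-downs that reduce calcium influx once internal stores are emptied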 (primary screen)
Cell system: Drosophila S2R+ cells
Knock-down reagent: long dsRNA against Drosophila genes
Challenge: thapsigargin (2 µM) in calcium-free buffer to empty internal stores, then 2 mM calcium added back
Read-out: 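Stores emptied by 2 µM thapsigargin without calcium, then 2 mM calcium re-added; fluo-4 fluorescence followed by FLIPR in 384-well plates, per-well averaged endpoint, raw; two screen passes, some wells retested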
Reading the numbers: calcium signal and retest calcium signal: higher = more calcium entry after store depletion
Hit rule: 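Knock-downs counted as hits when calcium entry dropped relative to STIM1 positive and Rho1 negative controls present on each plate; roughly 1500 genes called, with reductions of differing size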
Meaning of the calls: active = called as lowering calcium entry; inactive = not called
The screen tested about 20,000 reagents; below is an unselected part of those that have a named target and a result. Of all reagents, about 2,100 (10%) were called active. 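Raw plate signals without normalisation; calls rest on control-based scores that were not deposited; replicate 2 separates called from uncalled poorly.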 The numbers tell different reagents against one gene apart. Names joined by + are all predicted targets of the reagent. The record does not give: the amount of reagent, the time to read-out.

Target gene	dsRNA no.	calcium signal, replicate 1	calcium signal, replicate 2	retest calcium signal, replicate 1	retest calcium signal, replicate 2	activity call
Dscam3 (Down syndrome cell adhesion molecule 3)	1	132	153			inactive
Dscam3 (Down syndrome cell adhesion molecule 3)	2	134	158			inactive
CG5250	1	158	107			inactive
CG14191	1	117	126			inactive
EDTP (Egg-derived tyrosine phosphatase)	1	154	154			inactive
CG32199	1	93.8	137			inactive
CHKov1 (CHK domain ov1)	1	161	88			inactive
CHKov1 (CHK domain ov1)	2	175	118			inactive
CHKov1 (CHK domain ov1)	3	280	125			inactive
CHKov1 (CHK domain ov1)	4	99.6	8595			inactive
Drsl3 (Drosomycin-like 3)	1	106	186			inactive
Su(var)3-3 (Suppressor of variegation 3-3)	1	165	93.7			inactive
CG3515	1	175	102			inactive
CG4461	1	67.8	96.1			inactive
CG5509	1	171	91.5			inactive
LS2 (Large Subunit 2)	1	103	115			inactive
Galphao (G protein alpha subunit o)	1	150	104			inactive
CG13113	1	156	112			inactive
CG11983	1	113	158			inactive
CG14961	1	71.7	112			inactive
CG14636	1	145	183			inactive
ci (cubitus interruptus)	1	89.6	150			inactive
Cad99C (Cadherin 99C)	1	191	154			inactive
Cad99C (Cadherin 99C)	2	123	124			inactive
Ankrd49	1	97.6	106			inactive
CG32299 + CG32298	1					active
CG32299 + CG32298	2	103	236			inactive
CG5921	1	255	122			inactive
schlank	1	68.4	278			active
schlank	2	70.6	270			active
bic (bicaudal)	1	157	80.6			inactive
Atg17 (Autophagy-related 17)	1	88	157			inactive
CG13078	1	59.3	235			inactive
COX7B (Cytochrome c oxidase subunit 7B)	1	65.6	102			inactive
IscU (Iron-sulfur cluster assembly enzyme)	1	119	162			inactive
dysc (dyschronic)	1	133	83.6	9048	150	inactive
dysc (dyschronic)	2	120	77.2			inactive
dysc (dyschronic)	3	98.9	206			inactive
dysc (dyschronic)	4	115	232			inactive
dysc (dyschronic)	5	97.6	91.5			inactive
dysc (dyschronic)	6	110	145			inactive
CG11562	1	194	119			inactive
Got1 (Glutamate oxaloacetate transaminase 1)	1	165	114			inactive
tamo	1	70	165			active
Ir7e (Ionotropic receptor 7e)	1	105	130			inactive
Cht10 (Chitinase 10)	1	239	127			inactive
Cht10 (Chitinase 10)	2	69	165			active
Cht10 (Chitinase 10)	3	197	83.8			inactive
CG6204	1	192	154			inactive
CG4455	1	101	94.3	83.1	96.9	inactive
CG4455	2	200	109			inactive
CG33308	1	159	114			inactive
dve (defective proventriculus)	1	62	241			inactive
CG42512 + CG32573	1	111	121			inactive
CG42512 + CG32573	2	105	85.1			inactive
CG42512 + CG32573	3	142	153			inactive
mRpS9 (mitochondrial ribosomal protein S9)	1					inactive
mRpS9 (mitochondrial ribosomal protein S9)	2	136	182	6854	126	inactive
SmydA-4 (SET and MYND domain containing, arthropod-specific, member 4)	1	135	111	5778	113	inactive
SmydA-4 (SET and MYND domain containing, arthropod-specific, member 4)	2	76.1	179			inactive
RpS5a (Ribosomal protein S5a)	1	75.3	96.1			active
CG10550	1	84.2	94.5			inactive
Traf-like (TNF-receptor-associated factor-like)	1	129	137			inactive
Ptr (Patched-related)	1	154	202			inactive
Ptr (Patched-related)	2	144	100			inactive
CG4313	1	98.5	101			inactive
CG11298	1	89.1	128			inactive
CG14085	1	105	153			inactive
Cks30A (Cyclin-dependent kinase subunit 30A)	1	82.1	99.8			inactive
SdhBL (Succinate dehydrogenase, subunit B (iron-sulfur)-like)	1	69.8	63			active
CG30049	1	114	95.2			inactive

The list goes on; the last 15 above are carried over.
Target gene	dsRNA no.	calcium signal, replicate 1	calcium signal, replicate 2	retest calcium signal, replicate 1	retest calcium signal, replicate 2	activity call
mRpS9 (mitochondrial ribosomal protein S9)	1					inactive
mRpS9 (mitochondrial ribosomal protein S9)	2	136	182	6854	126	inactive
SmydA-4 (SET and MYND domain containing, arthropod-specific, member 4)	1	135	111	5778	113	inactive
SmydA-4 (SET and MYND domain containing, arthropod-specific, member 4)	2	76.1	179			inactive
RpS5a (Ribosomal protein S5a)	1	75.3	96.1			active
CG10550	1	84.2	94.5			inactive
Traf-like (TNF-receptor-associated factor-like)	1	129	137			inactive
Ptr (Patched-related)	1	154	202			inactive
Ptr (Patched-related)	2	144	100			inactive
CG4313	1	98.5	101			inactive
CG11298	1	89.1	128			inactive
CG14085	1	105	153			inactive
Cks30A (Cyclin-dependent kinase subunit 30A)	1	82.1	99.8			inactive
SdhBL (Succinate dehydrogenase, subunit B (iron-sulfur)-like)	1	69.8	63			active
CG30049	1	114	95.2			inactive
Gr64b + Gr64c	1	113	100			inactive
Gr64b + Gr64c	2	104	92.6			inactive
CG31176	1	182	117			inactive
CG31176	2	176	77.6			inactive
RIC-3 (RIC3 acetylcholine receptor chaperone)	1	158	90.2			inactive
RIC-3 (RIC3 acetylcholine receptor chaperone)	2	54.5	124			inactive
CG10209	1	184	136			inactive
NimC1 (Nimrod C1)	1	103	125			inactive
CG8728	1	136	78.7			inactive
Or33b (Odorant receptor 33b)	1	78.7	115			inactive
CG13796 + CG31904	1	89.6	197			inactive
CG15125	1	185	113			inactive
Ppm1	1	87.4	105			inactive
faf (fat facets)	1	73.2	105			inactive
Cpr47Ed (Cuticular protein 47Ed)	1	89.3	178			inactive
GstO2 (Glutathione S transferase O2)	1	84.3	109			inactive
Est-P (Esterase P)	1	78	82.6			active
CG13862	1	277	160			inactive
Prp8 (pre-mRNA processing factor 8)	1	104	122			inactive
Alp9 (Alkaline phosphatase 9)	1	66.4	108			active
CG12133	1	88.5	115			inactive
CG15040	1	110	179			inactive
CG15040	2	111	125			inactive
Fadd (Fas-associated death domain)	1	132	174			inactive
Snx1 (Sorting nexin 1)	1	199	157			inactive
Synd (Syndapin)	1	146	171			inactive
Mps1 (Monopolar spindle 1)	1	172	261			inactive
Ide (Insulin degrading metalloproteinase)	1	128	86			inactive
fid (fire dancer)	1	261	196			inactive
fid (fire dancer)	2	175	124			inactive
CG42854	1	47.2	65.1			active
ppk17 (pickpocket 17)	1	94.6	135			inactive
CG2608	1	110	128			inactive
Cyp4ae1 (Cytochrome P450 4ae1)	1	146	156			inactive
wts (warts)	1	115	154			active
wts (warts)	2	74.9	71.5			inactive
